{"source": "patent US9265771B2", "about": "“Method for treating Lyme disease” (Zoetis Services LLC, priority 2012, dated 2016)", "format_in_all_cases": "in vivo, beagle dogs", "key": {"B. burgdorferi": {"test_system": "B. burgdorferi", "assay": "Study B: SNAP-4Dx ELISA in tick-infected dogs", "conditions": "rest of the study after Day 179", "text": "Three outer surface proteins (Osp) on B. burgdorferi are important for diagnosis and prevention, and are expressed by the organism in response to its local environment. […] OspF is another surface protein that is generally observed in late-stage disease. The C in […] refers to a 25-amino acid, C6 peptide in the sixth invariable region of an outer membrane lipoprotein (VIsE). Antibody against C6 is highly accurate as a serologic diagnosis of Lyme disease independent of a subject's (e.g., canine) vaccination status. Further, the generation of C6 antibodies implies an active infection with viable spirochetes. Serological methods for detecting B. burgdorfer/Lyme disease were conducted using the IDEXX qualitative SNAP-4Dx ELISA and the Quantitative C6 (Quant C6 or QC6) diagnostic kits, which are enzyme linked immunosorbent assays against the previously described 25-amino-acid C6 peptide. […]\nForty days post-challenge, and prior to antibiotic treatments, blood was collected from each dog as were two skin biopsy punch samples near tick attachment sites. […] In cooperation with Cornell University, serum samples were analyzed using fluorescent-bead-based multiplex assays detecting antibodies against B. burgdorferi outer surface proteins OspA, OspC, and OspF. […]"}, "[1]": {"test_system": "B. burgdorferi outer surface protein OspC", "assay": "Study B: fluorescent-bead-based multiplex assay, antibodies against OspC", "conditions": "Day 221", "procedure": "(§1) Thirty-two (18 male and 14 female) beagle dogs were sero-negative for Borrelia burgdorferi, not vaccinated with any Borrelia spp vaccines, and acclimated at the study facility for seven days. The study was conducted under National Research Council guidelines (1996). […] Field-caught Ixodes from the northeast USA were placed on the dogs without containment chambers for 10 days; after ticks fed to repletion, dogs were treated with two applications of an approved topical acaricide with a 30-day interval between applications.\n(§2) Forty days post-challenge, and prior to antibiotic treatments, blood was collected from each dog as were two skin biopsy punch samples near tick attachment sites. Blood was collected approximately monthly post-treatment. Skin biopsies were taken near the tick attachment site on Days 48/49, 118, 146, 180, and 315. Serum antibodies to Borrelia were assayed using the IDEXX SNAP-4Dx and QC6 ELISA. In cooperation with Cornell University, serum samples were analyzed using fluorescent-bead-based multiplex assays detecting antibodies against B. burgdorferi outer surface proteins OspA, OspC, and OspF. Data were expressed as median fluorescent intensities (MFI), and shown to be specific and sensitive to provide interpretative guidelines regarding infection. The skin biopsies were collected for a polymerase chain reaction (PCR; FlaB) assay and cultured for spirochete detection. […]"}, "[2]": {"test_system": "B. burgdorferi outer surface protein OspF", "assay": "Study B: fluorescent-bead-based multiplex assay, antibodies against OspF", "conditions": "8 dogs/group", "procedure": "as §1\nas §2, with “Data were expressed as median fluorescent intensities (MFI), and shown to be specific and sensitive to provide interpretative guidelines regarding infection.” left out, “detection. At the end of the study, blood and skin biopsies were collected and synovial tissue from the joints were harvested at necropsy.” for “detection.”"}}, "note": "For at least one compound, name, drawing or mass did not settle the structure.", "data": [{"smiles": "C[C@H]1c2cccc(O)c2C(=O)C2=C(O)[C@]3(O)C(=O)C(C(N)=O)=C(O)[C@@H](N(C)C)[C@@H]3[C@@H](O)[C@@H]21", "note": "[doxycycline]", "values": [{"measurement": "SNAP-4Dx positive dogs", "setting": "B. burgdorferi", "value": "none positive"}, {"measurement": "Number of dogs above infected threshold (antibody-OspC)", "setting": "[1]", "value": "one"}, {"measurement": "Multiplex Assay OspF: No. Dogs > Positive Threshold (# dogs > 1500)", "setting": "[2]; Day 48 (pre-treatment)", "value": "one"}, {"measurement": "Multiplex Assay OspF: No. Dogs > Positive Threshold (# dogs > 1500)", "setting": "[2]; Day 111", "value": "one"}]}]}
